No constants are given. Whether binding was seen depends on the method and setting. Some entries that bind do so weakly or less than the wild type.
Legend:
[1] = target: soluble domain2/domain3 (D2D3) fragment of suPAR (UniProt Q03405); experiment: Western blot
[2] = target: soluble domain2/domain3 (D2D3) fragment of suPAR (UniProt Q03405); experiment: Western blot, recombinant protein on PVDF probed with 5 ug/ml antibody
[3] = target: soluble domain2/domain3 (D2D3) fragment of suPAR (UniProt Q03405); experiment: Western blot, antibody 5 ug/ml

The chains behind the UniProt entries cited, without tags or fusion partners. Residues count along the entry.
UniProt Q03405, residues 110-301: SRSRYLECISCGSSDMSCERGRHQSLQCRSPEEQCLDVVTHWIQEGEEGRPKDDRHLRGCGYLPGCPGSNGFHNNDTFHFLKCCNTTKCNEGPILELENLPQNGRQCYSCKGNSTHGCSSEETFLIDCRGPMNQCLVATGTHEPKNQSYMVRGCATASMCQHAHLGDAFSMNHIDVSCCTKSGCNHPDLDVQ

Measured: binding

B1: mAb ATN-615 (antibody, IgG1, V domains shown)
VH: VKLQQSGPEVVKPGASVKISCKASGYSFTNFYIHWVKQRPGQGLEWIGWIFHGSDNTEYNEKFKDKATLTADTSSSTAYMQLSSLTSEDSAVYFCARWGPHWYFDVWGQGTTVTVSS
VL: DIVLTQSPDITAASLGQKVTITCSASSSVSYMHWYQQKSGTSPKPWIFEISKLASGVPARFSGSGSGTSYSLTISSMEAEDAAIYYCQQWNYPFTFGGGTKLEIKR
binds: [1] | [2] | [3]

— US20090180952A1
